Measurements reported in PubChem BioAssay AID504467 (National Center for Advancing Translational Sciences (NCATS), 2011).
About 7,700 (2.3%) of roughly 330,000 compounds were called active. Inconclusive means that the source gave no clear call. Such entries were picked first, then a sample of the others. Calls come from the whole dose curve; as a rule, active = well fitted inhibition curve with a large enough effect; inconclusive = small, poorly fitted or top-dose-only effect, or effect the other way; inactive = flat fitted curve, though single readings scatter. Where the call is inconclusive, the potency comes from a doubtful curve fit.

test: qHTS screen for small molecules that inhibit ELG1-dependent DNA repair in human embryonic kidney (HEK293T) cells expressing luciferase-tagged ELG1; settings: HEK293T ELG1-luciferase reporter, luminescence, 16 h, DNA damage induced by 5-fluorouridine; series mostly up to 46.1 µM; note: nearly all actives have a fitted effect of over 55% in size
Procedure, shortened: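 Overnight (16 hr) co-exposure of 2,000 cells/well to 5-fluorouridine and compound at 37 °C preceded detection. Luciferase was quantified via ONE-Glo luminescence; loss of signal denotes inhibition.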
Potency is the fitted concentration of half-maximal effect.

| SMILES | Potency |
| --- | --- |
| NCCCNC(=O)c1ccc(/C=N/O)nc1 | inactive |
| COc1ccccc1NC(=S)N/N=C/c1cccc(C)c1 | inconclusive: 23.1 µM [inhibitor, single point] |
| O=c1oc(-c2ccccc2NS(=O)(=O)c2ccc(Cl)cc2)nc2ccccc12 | active: 14.6 µM |
| Cc1cc(N2CCOCC2)ccc1/C=C1\NC(=O)N(CC(=O)Nc2ccccc2C)C1=O | inconclusive: 25.9 µM [activator, partial curve, poor fit] |
| CC1(C)CC(NC(=O)C2CCC(=O)N(Cc3ccccc3F)C2)CC(C)(C)C1 (stereo unspecified) | inconclusive: 20.6 µM [activator, partial curve] |
| O=C(NNc1nc(N2CCOCC2)nc(N2CCOCC2)n1)Nc1ccc(Cl)cc1 | inactive |
| Cc1cc(C)cc(NC(=O)CSc2nc3c(c(=O)n2C)SC(C)C3)c1 (stereo unspecified) | inactive |
| Cc1nc(N/N=C/c2ccc(O)cc2O)cc(N2CCOCC2)n1 | inconclusive: 11.6 µM [inhibitor, partial curve, poor fit] |
| Cc1cc(=O)n2[nH]c(C)cc2n1 | inactive |
| O=C(CSc1nc2[nH]ncc2c(=O)n1-c1ccccc1)N1CCCCCC1 | inactive |
| CCCN1C2CCCC1CC(NC(=O)C1CCCCC1)C2 (stereo unspecified) | inactive |
| O=C(O)/C=C/c1cnc2ccccc2c1 | inconclusive: 32.6 µM [activator, partial curve, poor fit] |
| COc1ccc(C(=O)N2CCN(c3cccc(Cl)c3)CC2)c(OC)c1 | inactive |
| COc1cc(C(=O)Nc2ccc3c(c2)CCN3C(C)=O)cc(OC)c1OC | inconclusive: 16.4 µM [activator, single point] |
| Cn1c(NCc2ccco2)nc2c1c(=O)n(Cc1ccc(Cl)cc1)c(=O)n2C | inconclusive: 9.2 µM [inhibitor, partial curve, poor fit] |
| Clc1ccc(C[n+]2cc(-c3ccc(Cl)cc3)n3c2CCC3)cc1 | inconclusive: 2.06 µM [inhibitor, full curve, poor fit] |
| O=Cc1ccc(OCCCOc2cccc3cccnc23)cc1 | inactive |
| O=C(O)c1cc([N+](=O)[O-])ccc1NCc1ccccn1 | inconclusive: 22.4 µM [activator, single point] |
| Cc1cccc(C(=O)NCC(=O)OCC(=O)N(C)CC(=O)Nc2ccc(F)cc2)c1 | inconclusive: 23.1 µM [activator, single point] |
| COc1ccc(NC(=O)c2cc(-c3cccs3)on2)cc1 | inconclusive: 29.1 µM [activator, single point] |
| O=C(Nc1n[nH]c(C2CCCCC2)n1)C1CCCCC1 | inconclusive: 20.6 µM [activator, partial curve] |

In another format: 2 of the compounds above
SMILES	Potency
Cc1nc(N/N=C/c2ccc(O)cc2O)cc(N2CCOCC2)n1	inconclusive: 11.6 µM [inhibitor, partial curve, poor fit]
Cc1cc(=O)n2[nH]c(C)cc2n1	inactive
